Earlier results in patent publication US20180055752A1, “TOPICAL COMPOSITIONS TO REDUCE HAIR GROWTH” (The Regents of the University of California, priority 2016, published 2018).
At least one structure is not confirmed: it was looked up by name or label, or the drawing left a doubt.

Tested on: cultured human hair follicles

**Q.** With `Nc1cc(N2CCCCC2)nc(N)[n+]1[O-]` [minoxidil] as the molecule, how does the “effect on tolbutamide-induced shortening of anagen” value read?
**A.** Its value is “blocked”.
